# Measurements from PubChem BioAssay AID296 (DTP/NCI, 2004).
# The list is a part of this screen's results and no random one: it is rich in T/C values a quarter to a half above the control, in often repeated tests (any T/C) and in doses without a T/C. Other doses and runs of a compound stand elsewhere. T/C gives the treated animals as a percentage of the vehicle group. Schedules are NCI's codes, read here as Q, the interval in days (D) or hours (H), X, the number of doses. Some T/C values are followed by the survivors on the day toxicity was checked, most often the fifth; where none is given, no animal had died by that day. Some values lie below zero, which means that the treated tumours became smaller. Some entries hold several experiments; their values stand side by side, smallest first. Some entries give survivors of the animals treated and no T/C: the source holds a T/C of zero for them, seemingly a mark for toxic or unscored doses. Survivors were counted at the toxicity check, usually on the fifth day, unless a day is given; later deaths do not show.
# Tested on: MX-1 breast xenograft, nude mice, tumor weight T/C
# Assay: NCI In Vivo Anticancer Drug Screen. Data for tumor model Human Mammary Carcinoma MX-1 Xenograft (intrarenal inoculation) in NU/NU Swiss (nude) mice
# Conditions: T/C endpoint: mean tumor weight change, higher T/C = larger tumour; for T/C: evaluated on day 11
# Outline: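 Read-out: treated (T) over vehicle control (C) ratio of survival or tumor size. Dosing in animals carrying the transplanted tumor.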
# [1] = dose: 600.0 mg/kg/injection, schedule: Q04DX003 (sc), vehicle: saline with Tween-80
# [2] = dose: 1200.0 mg/kg/injection, schedule: Q04DX003 (sc), vehicle: saline with Tween-80
# [3] = dose: 400.0 mg/kg/injection, schedule: Q04DX003 (sc), vehicle: saline
# [4] = dose: 75.0 mg/kg/injection, schedule: Q04DX003 (sc), vehicle: saline with Tween-80
# [5] = dose: 300.0 mg/kg/injection, schedule: Q04DX003 (sc), vehicle: saline with Tween-80
# [6] = dose: 25.0 mg/kg/injection, schedule: Q01DX010 (sc), vehicle: saline
# [7] = dose: 50.0 mg/kg/injection, schedule: Q01DX010 (sc), vehicle: saline
# [8] = dose: 2400.0 mg/kg/injection, schedule: Q04DX003 (sc), vehicle: saline with Tween-80
# [9] = dose: 64.0 mg/kg/injection, schedule: Q04DX003 (sc), vehicle: saline
# [10] = dose: 128.0 mg/kg/injection, schedule: Q04DX003 (sc), vehicle: saline
smiles,measurement,setting,value
CN(C=O)C(C(=O)Nc1cccc2c(OC(=O)C(N(C)C=O)(N(C)C=O)N(C)C=O)c(N=Nc3ccc(S(=O)(=O)Nc4nccs4)cc3)cc(N=Nc3ccc(S(=O)(=O)Nc4nccs4)cc3)c12)(N(C)C=O)N(C)C=O (tested in a mixture with another compound),T/C,[1],142 % of control
same,T/C,[2],148 % of control
O=C1c2ccccc2C(=O)c2c3c(cc(NCCNCCO)c21)N(CCO)CCN3,T/C,"dose: 100.0 mg/kg/injection, schedule: Q04DX003 (sc), vehicle: DMSO",132 % of control
same,T/C,"dose: 400.0 mg/kg/injection, schedule: Q04DX003 (sc), vehicle: DMSO",137 % of control
same,T/C,"dose: 800.0 mg/kg/injection, schedule: Q04DX003 (sc), vehicle: DMSO",144 % of control [5 of 6 alive on day 11]
N#CC(=C1C=CC(=NO)C=C1)c1ccc(Cl)cc1,T/C,[2],128 % of control
Cc1ccc2c(c1)C(=O)N(CC[P+](c1ccccc1)(c1ccccc1)c1ccccc1)C2=O,T/C,"dose: 12.5 mg/kg/injection, schedule: Q04DX003 (sc), vehicle: Klucel (hydroxypropylcellulose) (HPC)",129 % of control
same,T/C,"dose: 50.0 mg/kg/injection, schedule: Q04DX003 (sc), vehicle: Klucel (hydroxypropylcellulose) (HPC)",136 % of control
same,survivor count,"dose: 100.0 mg/kg/injection, schedule: Q04DX003 (sc), vehicle: Klucel (hydroxypropylcellulose) (HPC)",1 of 6 on day 11
O=C(/C=C(\Cl)C(=O)NO)NO,survivor count,[3],0 of 6 on day 11
CC(=O)OCC1OC(n2cc(CBr)nn2)C(OC(C)=O)C(OC(C)=O)C1OC(C)=O (configuration not stated),T/C,"dose: 25.0 mg/kg/injection, schedule: Q01DX010 (sc), vehicle: saline with Tween-80",128 % of control
same,T/C,"dose: 50.0 mg/kg/injection, schedule: Q01DX010 (sc), vehicle: saline with Tween-80",131 % of control
same,T/C,"dose: 200.0 mg/kg/injection, schedule: Q01DX010 (sc), vehicle: saline with Tween-80",132 % of control [5 of 6 alive on day 11]
Cc1cc(O)c(N=Nc2ccc(C(=O)O)cc2)cc1C,T/C,[2],140 % of control
CC1c2ccccc2CC(CCN(C)C)c2ccccc21 (configuration not stated),survivor count,[4],2 of 6 on day 11
same,survivor count,"dose: 150.0 mg/kg/injection, schedule: Q04DX003 (sc), vehicle: saline with Tween-80",0 of 6 on day 11
same,survivor count,[5],0 of 6 on day 11
same,survivor count,[1],0 of 6 on day 11
COc1cccc2c1C(=O)c1c(O)c3c(c(O)c1C2=O)C[C@@](O)(/C(C)=N\NC(=O)CO)C[C@@H]3OC1CC(N)C(O)C(C)O1 (some centres not stated),T/C,[6],131 % of control
same,survivor count,[7],0 of 3 on day 11
same,survivor count,"dose: 100.0 mg/kg/injection, schedule: Q01DX010 (sc), vehicle: saline",0 of 3 on day 11
S=c1[nH]cc2cnccn12,T/C,[8],147 % of control
O=C(O)c1cc(C(=O)O)c(C(=O)O)cc1C(=O)O.[NH2-].[NH2-].[NH2-].[NH2-].[Pt+2].[Pt+2],T/C,"dose: 2.5 mg/kg/injection, schedule: Q04DX003 (ip), vehicle: water",126 % of control
C[n+]1c(-c2cccc3ccccc23)c2cc(N)ccc2c2ccccc21,T/C,"dose: 24.0 mg/kg/injection, schedule: Q04DX003 (sc), vehicle: saline",137 % of control
same,survivor count,"dose: 96.0 mg/kg/injection, schedule: Q04DX003 (sc), vehicle: saline",0 of 6 on day 11
CC1(C)OC2C(COC(=O)c3ccc([N+](=O)[O-])cc3)OC(NC(=O)N(CCCl)N=O)C2O1 (configuration not stated),survivor count,[2],0 of 6 on day 11 and 3 of 6 on day 11
same,survivor count,[8],0 of 6 on day 11 and 1 of 6 on day 11
O=Cc1ccccc1,survivor count,"dose: 1600.0 mg/kg/injection, schedule: Q04DX003 (sc), vehicle: Klucel (hydroxypropylcellulose) (HPC)",0 of 6 on day 11
C=C1C(=O)O[C@@H]2[C@H](O)[C@@H](C)[C@@H]3C=CC(=O)[C@@]3(C)[C@H](OC(=O)C=C(C)C)[C@H]12,survivor count,[4],1 of 6 on day 11
C1OCN2CSCC12 (configuration not stated),survivor count,"dose: 800.0 mg/kg/injection, schedule: Q04DX003 (sc), vehicle: saline with Tween-80",2 of 6 on day 11
CN1c2c(nc(N)[nH]c2=O)NCC1CCNc1ccc(C(=O)NC(CCC(=O)O)C(=O)O)cc1 (configuration not stated),survivor count,"dose: 200.0 mg/kg/injection, schedule: Q01DX010 (sc), vehicle: suspension in saline",1 of 3 on day 11
same,survivor count,"dose: 800.0 mg/kg/injection, schedule: Q01DX010 (sc), vehicle: suspension in saline",0 of 3 on day 11
CCC(NC(N)=O)C(CC)NC(N)=O (configuration not stated),survivor count,"dose: 75.0 mg/kg/injection, schedule: Q04DX003 (ip), vehicle: saline with Tween-80",2 of 6 on day 11
same,survivor count,"dose: 150.0 mg/kg/injection, schedule: Q04DX003 (ip), vehicle: saline with Tween-80",2 of 6 on day 11
same,survivor count,"dose: 300.0 mg/kg/injection, schedule: Q04DX003 (ip), vehicle: saline with Tween-80",0 of 6 on day 11
same,survivor count,"dose: 600.0 mg/kg/injection, schedule: Q04DX003 (ip), vehicle: saline with Tween-80",0 of 5 on day 11
O=C1c2c(O)cccc2-c2nn(CCNCCO)c3ccc(NCCNCCO)c1c23,survivor count,"dose: 22.0 mg/kg/injection, schedule: Q04DX003 (ip), vehicle: water",2 of 6 on day 11
same,survivor count,"dose: 44.0 mg/kg/injection, schedule: Q04DX003 (ip), vehicle: water",0 of 6 on day 11
O=NNc1ccccn1,T/C,"dose: 0.5 mg/kg/injection, schedule: Q01DX010 (sc), vehicle: saline",135 % of control
same,survivor count,[6],3 of 6 on day 11
same,survivor count,[7],0 of 6 on day 11
same,survivor count,"dose: 64.0 mg/kg/injection, schedule: Q01DX010 (sc), vehicle: saline",2 of 6 on day 11
same,T/C,[9],"-96 [4 of 6 alive on day 11], -31, 88 % of control"
same,survivor count,[9],0 of 6 on day 11
same,survivor count,"dose: 128.0 mg/kg/injection, schedule: Q01DX010 (sc), vehicle: saline",0 of 3 on day 11 and 0 of 6 on day 11
same,T/C,[10],76 % of control
same,survivor count,[10],0 of 6 on day 11 and 3 of 6 on day 11
same,survivor count,"dose: 256.0 mg/kg/injection, schedule: Q04DX003 (sc), vehicle: saline",0 of 6 on day 11
same,survivor count,"dose: 512.0 mg/kg/injection, schedule: Q04DX003 (sc), vehicle: saline",0 of 6 on day 11
same,survivor count,"dose: 1024.0 mg/kg/injection, schedule: Q04DX003 (sc), vehicle: saline",0 of 6 on day 11
OCC1OC(n2cnc3cc(Cl)c(Cl)cc32)C(O)C1O (configuration not stated),T/C,[5],125 % of control [4 of 5 alive on day 11]
same,survivor count,[2],3 of 6 on day 11
same,survivor count,[8],1 of 5 on day 11
CC[C@]1(O)C[C@H]2CN(CCc3c([nH]c4ccccc34)[C@@](C(=O)OC)(c3cc4c(cc3OC)N(C=O)[C@H]3[C@@](O)(C(=O)OC)[C@H](OC(C)=O)[C@]5(CC)C=CCN6CC[C@]43[C@@H]65)C2)C1,survivor count,"dose: 1.0 mg/kg/injection, schedule: Q01DX010 (sc), vehicle: saline",1 of 3 on day 11
COC1/C=C\C=C(/C)C(=O)NC2=CC(=O)C=C(C2=O)C(OC)C(C)CC(OC)C(OC)C(C)/C=C(/C)C1OC(N)=O (configuration not stated),survivor count,"dose: 18.0 mg/kg/injection, schedule: Q04DX003 (sc), vehicle: Klucel (hydroxypropylcellulose) (HPC)",1 of 6 on day 11
NC(=O)c1ccc[n+](Cc2c(Cl)cccc2Cl)c1,survivor count,"dose: 200.0 mg/kg/injection, schedule: Q04DX003 (sc), vehicle: saline",0 of 5 on day 11
same,survivor count,[3],0 of 6 on day 11
